In brackets after ≈: the same amount, converted by molar mass.
Test: Solubility of compound in SGF by HPLC analysis
Conditions: simulated gi fluid

Structure (SMILES) | solubility [µg/mL]
CNCc1ccc(-n2cc(-c3nc(NC4CCN(S(C)(=O)=O)CC4)ncc3C#N)cn2)c(Cl)c1 | 221 (≈ 441 µM)
CS(=O)(=O)N1CCC(Nc2ncc(C(F)(F)F)c(-c3cnn(-c4ccc(C#N)cc4Cl)c3)n2)CC1 | < 1
